Data as given in patent publication EP0564801A1, “Analysis of host cell shut-off” (BOEHRINGER INGELHEIM INTERNATIONAL GmbH, priority 1992, dated 1993).
Part of at least one peptide drawing is inferred or uncertain, most often the ends. No end group written: not given here.

Test system: host cell shut-off
Experiment: Inhibition of host cell shut-off (statement, test not described)
Conditions: statement only, no data given

## TRPIITTAGPSDMYVH [P8-P8', TRPIITTAGPSDMYVH, reference compound]
  Inhibition of host cell shut-off: in der Lage, den "host cell shut-off" zu inhibieren
